From the supplement of paper PMC10849652 come the findings set out here.

The chains behind the UniProt entries cited, without tags or fusion partners. Where a name states a change or a piece, a line headed by the entry shows the natural chain unless it says otherwise.
UniProt Q9H0I2: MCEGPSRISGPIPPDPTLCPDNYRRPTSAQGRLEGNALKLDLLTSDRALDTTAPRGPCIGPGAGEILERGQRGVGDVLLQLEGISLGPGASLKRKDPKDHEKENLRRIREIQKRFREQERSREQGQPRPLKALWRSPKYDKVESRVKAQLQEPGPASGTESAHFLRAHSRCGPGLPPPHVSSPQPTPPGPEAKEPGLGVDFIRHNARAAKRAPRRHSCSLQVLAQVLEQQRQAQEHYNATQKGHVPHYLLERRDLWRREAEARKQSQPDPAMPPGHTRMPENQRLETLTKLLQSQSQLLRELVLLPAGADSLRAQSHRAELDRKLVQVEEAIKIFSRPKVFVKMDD
UniProt Q8N8S7: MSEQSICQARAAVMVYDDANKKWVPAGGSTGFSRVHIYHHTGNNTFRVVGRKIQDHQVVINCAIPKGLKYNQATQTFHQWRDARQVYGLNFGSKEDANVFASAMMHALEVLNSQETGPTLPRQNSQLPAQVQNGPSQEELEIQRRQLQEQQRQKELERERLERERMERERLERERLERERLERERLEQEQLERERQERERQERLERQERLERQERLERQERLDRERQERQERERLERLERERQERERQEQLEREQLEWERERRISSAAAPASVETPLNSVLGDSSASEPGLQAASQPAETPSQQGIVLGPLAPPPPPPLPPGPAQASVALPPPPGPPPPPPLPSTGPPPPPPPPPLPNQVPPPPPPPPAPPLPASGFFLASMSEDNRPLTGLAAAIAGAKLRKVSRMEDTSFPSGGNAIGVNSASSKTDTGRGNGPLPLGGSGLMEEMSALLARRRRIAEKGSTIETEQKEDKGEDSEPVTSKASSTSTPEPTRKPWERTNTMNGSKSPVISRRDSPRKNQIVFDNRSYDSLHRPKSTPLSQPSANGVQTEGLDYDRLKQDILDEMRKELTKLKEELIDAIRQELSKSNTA
UniProt Q04637, whole entry, looked up: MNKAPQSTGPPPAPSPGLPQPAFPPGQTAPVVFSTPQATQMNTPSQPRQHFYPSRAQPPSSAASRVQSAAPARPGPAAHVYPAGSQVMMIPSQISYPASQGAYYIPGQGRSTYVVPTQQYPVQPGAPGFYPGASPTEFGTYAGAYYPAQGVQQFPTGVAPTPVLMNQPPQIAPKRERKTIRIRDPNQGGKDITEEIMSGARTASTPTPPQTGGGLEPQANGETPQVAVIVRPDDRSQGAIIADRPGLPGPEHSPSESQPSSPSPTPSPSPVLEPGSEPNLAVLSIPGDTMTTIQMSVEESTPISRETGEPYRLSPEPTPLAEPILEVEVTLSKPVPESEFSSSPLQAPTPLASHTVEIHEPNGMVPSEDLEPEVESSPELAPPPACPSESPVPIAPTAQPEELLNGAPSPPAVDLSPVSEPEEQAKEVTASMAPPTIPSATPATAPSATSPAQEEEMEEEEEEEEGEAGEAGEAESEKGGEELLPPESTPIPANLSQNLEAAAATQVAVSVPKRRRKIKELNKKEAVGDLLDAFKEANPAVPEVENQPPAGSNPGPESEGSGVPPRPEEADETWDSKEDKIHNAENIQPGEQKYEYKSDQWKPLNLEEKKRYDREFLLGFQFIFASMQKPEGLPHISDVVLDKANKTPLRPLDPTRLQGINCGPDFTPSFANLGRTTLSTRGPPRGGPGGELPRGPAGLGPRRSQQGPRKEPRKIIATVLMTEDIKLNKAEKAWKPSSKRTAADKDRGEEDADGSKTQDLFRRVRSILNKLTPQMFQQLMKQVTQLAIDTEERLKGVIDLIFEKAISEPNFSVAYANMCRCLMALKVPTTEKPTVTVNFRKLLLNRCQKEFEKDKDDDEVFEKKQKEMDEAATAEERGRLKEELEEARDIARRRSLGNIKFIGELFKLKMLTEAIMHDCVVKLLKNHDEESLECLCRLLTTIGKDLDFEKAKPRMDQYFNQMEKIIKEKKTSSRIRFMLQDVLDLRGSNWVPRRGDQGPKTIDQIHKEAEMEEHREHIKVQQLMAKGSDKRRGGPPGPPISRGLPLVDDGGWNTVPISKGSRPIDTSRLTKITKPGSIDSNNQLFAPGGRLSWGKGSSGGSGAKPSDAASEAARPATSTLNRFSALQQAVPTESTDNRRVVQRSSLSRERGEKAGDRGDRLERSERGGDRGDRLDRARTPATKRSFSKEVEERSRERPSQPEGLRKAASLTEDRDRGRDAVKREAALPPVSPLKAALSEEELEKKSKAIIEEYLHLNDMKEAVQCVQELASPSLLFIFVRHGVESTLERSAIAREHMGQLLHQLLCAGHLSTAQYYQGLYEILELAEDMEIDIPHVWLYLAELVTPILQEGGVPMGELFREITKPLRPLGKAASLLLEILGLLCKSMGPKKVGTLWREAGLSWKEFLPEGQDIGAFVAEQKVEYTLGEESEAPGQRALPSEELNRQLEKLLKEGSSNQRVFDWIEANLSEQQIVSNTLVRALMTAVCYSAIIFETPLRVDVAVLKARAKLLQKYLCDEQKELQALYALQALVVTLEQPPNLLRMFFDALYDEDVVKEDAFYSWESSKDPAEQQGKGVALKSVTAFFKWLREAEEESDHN
UniProt Q9H4G0, whole entry, looked up: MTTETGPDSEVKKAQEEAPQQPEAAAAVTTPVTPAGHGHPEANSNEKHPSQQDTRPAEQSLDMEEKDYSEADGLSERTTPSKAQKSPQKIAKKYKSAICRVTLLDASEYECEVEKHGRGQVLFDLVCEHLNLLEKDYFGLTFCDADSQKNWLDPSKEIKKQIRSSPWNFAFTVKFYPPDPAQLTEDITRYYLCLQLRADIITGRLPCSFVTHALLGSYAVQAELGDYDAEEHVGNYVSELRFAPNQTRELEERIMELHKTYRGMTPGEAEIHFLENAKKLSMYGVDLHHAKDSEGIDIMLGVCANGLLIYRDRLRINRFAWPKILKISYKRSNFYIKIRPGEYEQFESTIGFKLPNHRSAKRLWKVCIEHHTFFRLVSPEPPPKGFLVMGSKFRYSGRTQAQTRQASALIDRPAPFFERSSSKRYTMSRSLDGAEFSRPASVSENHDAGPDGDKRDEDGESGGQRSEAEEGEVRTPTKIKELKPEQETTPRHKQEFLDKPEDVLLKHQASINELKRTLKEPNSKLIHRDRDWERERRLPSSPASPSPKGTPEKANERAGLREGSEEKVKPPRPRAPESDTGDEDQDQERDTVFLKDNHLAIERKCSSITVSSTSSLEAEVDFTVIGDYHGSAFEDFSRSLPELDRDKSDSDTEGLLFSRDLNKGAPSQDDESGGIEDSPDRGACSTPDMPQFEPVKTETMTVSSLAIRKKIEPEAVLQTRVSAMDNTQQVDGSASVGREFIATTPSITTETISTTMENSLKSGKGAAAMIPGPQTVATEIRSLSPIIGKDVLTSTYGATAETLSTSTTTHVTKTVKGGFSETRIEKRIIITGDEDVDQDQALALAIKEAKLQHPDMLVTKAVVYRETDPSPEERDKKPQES
UniProt Q96C92: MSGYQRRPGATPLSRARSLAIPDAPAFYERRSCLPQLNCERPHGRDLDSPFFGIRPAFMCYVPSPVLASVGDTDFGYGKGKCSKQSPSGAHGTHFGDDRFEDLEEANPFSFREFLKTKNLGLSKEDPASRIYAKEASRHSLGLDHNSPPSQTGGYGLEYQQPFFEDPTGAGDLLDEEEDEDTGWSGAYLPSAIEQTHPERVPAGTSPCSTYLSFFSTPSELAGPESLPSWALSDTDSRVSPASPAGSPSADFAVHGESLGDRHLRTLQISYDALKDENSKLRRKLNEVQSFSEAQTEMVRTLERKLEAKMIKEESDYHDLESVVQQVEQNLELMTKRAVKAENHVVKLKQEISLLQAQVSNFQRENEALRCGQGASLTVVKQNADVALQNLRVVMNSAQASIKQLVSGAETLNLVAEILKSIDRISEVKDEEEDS
UniProt Q9UI10, whole entry, looked up: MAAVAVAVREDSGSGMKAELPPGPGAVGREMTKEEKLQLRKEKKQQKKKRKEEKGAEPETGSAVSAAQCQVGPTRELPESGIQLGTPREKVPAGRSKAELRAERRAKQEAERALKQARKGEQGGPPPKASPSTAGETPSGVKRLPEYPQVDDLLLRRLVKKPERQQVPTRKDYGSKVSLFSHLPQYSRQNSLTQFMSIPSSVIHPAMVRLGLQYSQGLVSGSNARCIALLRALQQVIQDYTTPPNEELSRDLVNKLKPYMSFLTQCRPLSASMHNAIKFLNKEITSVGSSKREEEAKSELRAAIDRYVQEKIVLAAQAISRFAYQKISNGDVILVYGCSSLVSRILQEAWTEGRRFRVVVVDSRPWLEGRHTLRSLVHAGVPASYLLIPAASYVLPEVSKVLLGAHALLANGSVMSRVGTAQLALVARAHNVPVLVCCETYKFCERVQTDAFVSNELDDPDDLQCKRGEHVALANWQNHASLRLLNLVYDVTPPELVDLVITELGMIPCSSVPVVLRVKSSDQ
UniProt O00418: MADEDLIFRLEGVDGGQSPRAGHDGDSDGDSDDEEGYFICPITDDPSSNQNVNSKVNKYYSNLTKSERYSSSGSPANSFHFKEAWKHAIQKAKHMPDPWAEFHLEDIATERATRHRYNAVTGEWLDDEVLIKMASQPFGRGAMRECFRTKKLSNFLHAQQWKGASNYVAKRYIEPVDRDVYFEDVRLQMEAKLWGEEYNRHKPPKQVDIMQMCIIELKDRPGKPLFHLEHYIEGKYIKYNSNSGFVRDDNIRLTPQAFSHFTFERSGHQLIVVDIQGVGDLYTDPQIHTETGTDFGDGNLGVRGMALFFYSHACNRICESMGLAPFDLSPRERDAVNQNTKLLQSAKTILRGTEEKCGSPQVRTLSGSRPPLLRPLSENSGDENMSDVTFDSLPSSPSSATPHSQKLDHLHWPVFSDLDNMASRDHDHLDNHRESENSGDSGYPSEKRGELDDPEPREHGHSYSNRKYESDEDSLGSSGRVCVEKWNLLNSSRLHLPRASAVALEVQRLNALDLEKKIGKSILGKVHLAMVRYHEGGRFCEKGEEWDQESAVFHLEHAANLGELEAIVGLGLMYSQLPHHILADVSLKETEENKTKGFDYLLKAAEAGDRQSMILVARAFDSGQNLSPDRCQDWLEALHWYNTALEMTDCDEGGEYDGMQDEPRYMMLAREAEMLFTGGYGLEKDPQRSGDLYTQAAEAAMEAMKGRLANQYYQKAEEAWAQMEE
UniProt P26378: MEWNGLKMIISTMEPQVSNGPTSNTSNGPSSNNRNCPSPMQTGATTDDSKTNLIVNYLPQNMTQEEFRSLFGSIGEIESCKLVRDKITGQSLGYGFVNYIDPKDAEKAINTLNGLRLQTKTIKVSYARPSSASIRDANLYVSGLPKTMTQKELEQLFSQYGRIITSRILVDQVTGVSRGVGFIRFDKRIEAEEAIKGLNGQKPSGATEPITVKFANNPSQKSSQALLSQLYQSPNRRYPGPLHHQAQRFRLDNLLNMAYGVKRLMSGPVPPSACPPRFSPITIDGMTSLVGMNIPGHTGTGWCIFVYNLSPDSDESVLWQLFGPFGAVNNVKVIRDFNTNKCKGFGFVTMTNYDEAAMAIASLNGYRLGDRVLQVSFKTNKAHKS
UniProt Q9GZV4: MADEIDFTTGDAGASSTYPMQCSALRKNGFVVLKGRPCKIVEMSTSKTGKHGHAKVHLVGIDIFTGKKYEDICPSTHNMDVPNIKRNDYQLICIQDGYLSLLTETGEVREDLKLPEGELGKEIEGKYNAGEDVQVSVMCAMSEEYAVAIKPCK
UniProt P11171, whole entry, looked up: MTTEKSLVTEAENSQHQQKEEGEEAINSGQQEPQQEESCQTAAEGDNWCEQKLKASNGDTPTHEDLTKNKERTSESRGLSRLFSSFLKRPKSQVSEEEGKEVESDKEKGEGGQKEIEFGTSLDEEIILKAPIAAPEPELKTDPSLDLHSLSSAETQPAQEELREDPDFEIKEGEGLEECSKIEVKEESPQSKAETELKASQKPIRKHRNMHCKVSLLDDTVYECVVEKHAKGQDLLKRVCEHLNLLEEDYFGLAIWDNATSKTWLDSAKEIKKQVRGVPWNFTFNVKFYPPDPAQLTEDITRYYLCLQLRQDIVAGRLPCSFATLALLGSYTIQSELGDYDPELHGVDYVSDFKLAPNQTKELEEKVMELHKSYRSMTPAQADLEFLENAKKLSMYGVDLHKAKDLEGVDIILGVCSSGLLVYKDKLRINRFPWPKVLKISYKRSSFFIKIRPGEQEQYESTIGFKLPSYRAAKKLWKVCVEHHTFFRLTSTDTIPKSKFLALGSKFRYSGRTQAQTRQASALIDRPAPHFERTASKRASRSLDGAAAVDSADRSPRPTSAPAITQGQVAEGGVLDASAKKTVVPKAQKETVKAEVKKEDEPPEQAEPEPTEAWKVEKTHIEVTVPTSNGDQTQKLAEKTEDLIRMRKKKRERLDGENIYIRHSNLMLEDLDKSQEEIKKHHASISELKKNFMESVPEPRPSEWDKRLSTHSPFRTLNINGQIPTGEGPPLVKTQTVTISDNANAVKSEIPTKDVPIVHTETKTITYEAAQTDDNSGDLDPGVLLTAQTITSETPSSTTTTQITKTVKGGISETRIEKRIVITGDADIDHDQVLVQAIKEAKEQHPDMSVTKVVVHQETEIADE

This is one part of the list.

Compound in the first assay: CN(C)CC(=O)Nc1ccc2[nH]c(=O)c3ccccc3c2c1
As to the kind of experiment: log2 fold change, soluble protein after heating vs DMSO (PISA); higher = thermal stabilisation; K562 cells, 10 uM, 30 min; active = over 0.2 and 3.5 SD of the protein, either way, in both replicates (recomputed). The gist of the method: (§1)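 For each measurement, 10 μM compound was applied for 30 min to K562 cells at 2×10^6 cells/mL. Aliquots were heated for 3 min across 48°C-58°C, pooled, and extracted in PBS with 0.5% NP-40 at 4°C; the supernatant after 21,000xg for 90 min was soluble protein. This was quantified by TMTpro 16plex LC-MS/MS with channel sums equalised, and thermal stability was reported relative to control samples from duplicates, on a log2 fold-change scale.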
As for EML5 isoform 5 (UniProt Q05BV3), the log2 fold change is inactive: 0.108.

Consider ENKD1 (UniProt Q9H0I2), for which the log2 fold change was inactive: 0.069.

For the target ENAH (UniProt Q8N8S7), the log2 fold change is inactive: -0.755.

As for EIF4G1 (UniProt Q04637), the log2 fold change was inactive: 0.

On to EPB41L1 (UniProt Q9H4G0), for which the log2 fold change is inactive: -0.01.

As to ENTR1 (UniProt Q96C92), the log2 fold change was inactive: -0.107.

On to EIF2B4 (UniProt Q9UI10), for which the log2 fold change was inactive: -0.002.

On to EEF2K (UniProt O00418), for which the log2 fold change was inactive: 0.096.

Compound in the next assay: CN(CCOC1=CC=C(C=C1)C[C@H]2C(=O)NC(=O)S2)C3=CC=CC=N3 (racemic) [rosiglitazone]
Described as above. The gist of the method:
as §1
For the target EML5 isoform 5 (UniProt Q05BV3), the log2 fold change is inactive: 0.005.

For ELAVL4 (UniProt P26378), the log2 fold change was inactive: -0.016.

For EIF4B (UniProt F8VP89), the log2 fold change is inactive: -0.115.

Regarding EIF5A2 (UniProt Q9GZV4), the log2 fold change was inactive: -0.003.

EEF1AKMT2 (UniProt Q5JPI9): the log2 fold change was inactive: 0.02.

Consider EPB41L1 (UniProt Q9H4G0), for which the log2 fold change was inactive: 0.048.

On to EPB41 isoform 4 (UniProt P11171), for which the log2 fold change was inactive: -0.13.

Regarding ENPP2 isoform 2 (UniProt Q13822), the log2 fold change was inactive: -0.069.

EIF2B4 (UniProt Q9UI10): the log2 fold change is inactive: -0.165.
